“Also recorded” adds a separate entry of the source.
Test system: 14-3-3σΔC
Assay: X-ray cocrystallization / soaking with 14-3-3σΔC
Details: ternary complex 14-3-3σΔC/CIP2A/FC-A, PDB 7BMC, 2.0 Å

## C=CC(C)(C)OC[C@H]1O[C@H](O[C@@H]2C3=C([C@H](C)COC(C)=O)C[C@H](O)[C@]3(C)/C=C3/[C@@H](COC)CC[C@H]3[C@@H](C)[C@H]2O)[C@H](O)[C@@H](OC(C)=O)[C@@H]1O [FC-A, Fusicoccin-A]
  contacts in crystal structure: Polar contacts are established between FC-A and Lys122 and Asp215; also recorded: deeply buried in the hydrophobic groove where amino acids Val46, Phe119, Ile168, Leu218, Ile219, and Leu222 interact with the diterpene moiety
